Laboratory results as given in paper PMC9982576, “Nuclear Fructose‐1,6‐Bisphosphate Inhibits Tumor Growth and Sensitizes Chemotherapy by Targeting HMGB1” (Advanced Science, 2023).

Sequences of proteins named here, by UniProt entry; tags and fusion partners are left off. A change or cut given only in a name is not applied to a line headed by its entry.
UniProt P09429: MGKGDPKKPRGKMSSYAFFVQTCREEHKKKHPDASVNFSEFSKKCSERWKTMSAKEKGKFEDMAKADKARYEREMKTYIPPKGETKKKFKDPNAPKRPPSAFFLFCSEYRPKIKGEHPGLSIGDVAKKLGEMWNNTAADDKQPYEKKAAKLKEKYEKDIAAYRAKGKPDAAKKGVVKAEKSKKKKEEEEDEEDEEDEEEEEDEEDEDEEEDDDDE

Key:
[1] = target: HMGB1 A-box with K8 mutated to alanine, purified (UniProt P09429); experiment: ITC; purified HMGB1 A-box in the cell titrated with free C-tail (15) peptide; 100 mM Hepes, 50 mM NaCl; with or without 0.2 mM F1,6P; single site binding model; both purified
[2] = target: HMGB1 A-box with R10 mutated to alanine, purified (UniProt P09429); experiment: as above

B1: C15 peptide (HMGB1 aa200–214) (peptide, UniProt P09429 200-214, looked up)
peptide: EEDEEDEDEEEDDDD
notes: HMGB1 acidic C-tail, aa200-214; also called C-tail (15) peptide; C-tail (15); source: synthetic peptide
binding [1]: binds
binding [2]: binds

Results are given in words; binding and its absence hold for the method and conditions named. Binding can be weak; no strength is given.
